# Paper PMC9534960, “De Novo Design of an Androgen Receptor DNA Binding Domain‐Targeted peptide PROTAC for Prostate Cancer Therapy” (Advanced Science, 2022)
# Sequences of proteins named here, by UniProt entry; tags and fusion partners are left off. A change or cut given only in a name is not applied to a line headed by its entry.
# UniProt P10275: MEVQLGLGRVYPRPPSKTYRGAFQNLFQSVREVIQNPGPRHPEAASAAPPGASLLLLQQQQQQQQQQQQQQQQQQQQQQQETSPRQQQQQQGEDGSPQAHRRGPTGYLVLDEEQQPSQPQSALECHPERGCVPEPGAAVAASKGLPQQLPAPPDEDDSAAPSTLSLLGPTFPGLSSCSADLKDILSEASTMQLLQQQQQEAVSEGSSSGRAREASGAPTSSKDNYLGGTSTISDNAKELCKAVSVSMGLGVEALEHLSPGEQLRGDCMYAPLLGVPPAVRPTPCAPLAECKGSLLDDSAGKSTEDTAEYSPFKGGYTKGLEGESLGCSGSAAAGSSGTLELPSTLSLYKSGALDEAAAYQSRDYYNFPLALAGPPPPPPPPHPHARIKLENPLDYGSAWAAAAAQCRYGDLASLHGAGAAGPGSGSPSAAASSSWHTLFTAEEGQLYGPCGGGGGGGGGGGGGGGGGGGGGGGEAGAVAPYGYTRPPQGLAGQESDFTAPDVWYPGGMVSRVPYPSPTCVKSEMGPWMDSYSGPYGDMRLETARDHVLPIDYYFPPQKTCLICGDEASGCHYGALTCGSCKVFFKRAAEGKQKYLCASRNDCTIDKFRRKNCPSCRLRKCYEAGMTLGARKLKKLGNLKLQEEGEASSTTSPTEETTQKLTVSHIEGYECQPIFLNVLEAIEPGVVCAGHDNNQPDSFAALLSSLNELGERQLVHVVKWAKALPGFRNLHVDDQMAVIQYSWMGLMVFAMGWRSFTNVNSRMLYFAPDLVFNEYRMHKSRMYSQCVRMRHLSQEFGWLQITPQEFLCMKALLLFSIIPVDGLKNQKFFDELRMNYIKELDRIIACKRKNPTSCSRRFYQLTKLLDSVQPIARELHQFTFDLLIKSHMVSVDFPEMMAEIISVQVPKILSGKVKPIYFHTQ
# No constants are given. Whether binding was seen depends on the method and setting.
# B1: AR pep‐PROTAC drug (designed peptide PROTAC) (peptide)
# peptide: YLCSSNNNRERDKFRRGGSGGTSFEQFWAWLWP
# Biological target: AR ΔDBD, recombinant from E. coli (UniProt P10275)
# Experiment: condition: protein around 20 µM in the cell, peptide around 200 µM in the syringe; ITC; protein (around 20 µM, 0.2 ml) in the sample cell, peptide (around 200 µM) in the syringe; 25 °C; first injection 0.4 µl, then 19 injections of 2 µl; both purified
binder,measurement,value
B1,binding,no binding
